Entries after “also recorded” stand apart in the source; their conditions may differ. At least one compound was matched to its structure with a doubt left. Some entries share one result that the patent states for a list of compounds.
Key:
[1] = system: MAT2A; test: MAT2A mRNA levels by real-time PCR in HT-29 cells; assay type: cell-based, human; details: for lowering of MAT2A expression: time course
Protocol: (§1) HT-29 and RKO cells were obtained from the Cell Culture Core of the USC Liver Disease Research Center and grown according to instructions provided by the American Type Culture Collection (ATCC, Rockville, Md.). Prior to treatment with growth factors, SAMe or MTA, medium was changed to 0.1% FBS overnight.
RNA interference (RNAi) experiments were performed using Lipofectamine RNAiMax (Invitrogen) according to the manufacturer's instructions. Small interfering RNA (siRNA) oligonucleotides for MAT2A and scrambled siRNA were synthesized by the USC Norris Comprehensive Cancer Center Microchemical Core Laboratory, and annealed to form duplexes. Stealth RNAi for MAT2A and Stealth RNAi negative control duplexes were synthesized by Invitrogen (Carlsbad, Calif.). The following siRNA sequences were used: si-MAT2A #1, 5′-[…]-3′ (sense) and 5′-[…]-3′ (antisense); si-control with scrambled sequence (negative control siRNA having no perfect matches to known human genes), 5′-[…]dTdT-3′ (sense) and 5% […]dTdT-3′ (antisense); stealth RNAi-MAT2A #5, 5′-[…]-3′ (sense) and 5′-[…]-3′ (antisense). […]
Total RNA was isolated by the EZgeno total RNA isolation kit (Genemega, San Giego, Calif.), and subjected to reverse transcription (RT) by using M-MLV Reverse transcriptase (Invitrogen). 2 μl of RT product was subjected to quantitative real-time PCR analysis. The primers and TaqMan probes for MAT2A, MAT2β and Universal PCR Master Mix were purchased from ABI (Foster City, Calif.). Hypoxanthine phosphoribosyl-transferase 1 (HPRT1) and ubiquitin C (UBC) were used as housekeeping genes (48). The thermal profile consisted of 1 cycle at 95° C. for 15 minutes followed by 40 cycles at 95° C. for 15 seconds and at 60° C. for 1 minute. The expression of MAT2A and MAT2β was checked by normalizing the Ct of MAT2A and MAT2β to that of the control housekeeping gene (HPRT1 or UBC) (49). The delta Ct obtained was used to find the relative expression of MAT genes according to the formula: Relative expression=2·^ΔCt, where ΔCt=ΔCt of MAT genes in colon cancer or treated cells—ΔCt of MAT genes in normal colon or control cells.

[2] = system: human MAT2A promoter; test: Luciferase activity driven by the human MAT2A promoter in HT-29 cells; assay type: cell-based; details: SAMe 5 mM or MTA 1 mM, 6 hrs
Protocol: (§2) The human MAT2A promoter construct[…] and GSS promoter construct −1686/−46-LUC were previously described (33, 34, 50), and subcloned in the sense orientation upstream of the luciferase coding sequence of the pGL-3 enhancer vector (Promega). Both promoter constructs contain maximal promoter activity.
To study the effect of mitogens on human MAT2A promoter activity in HT-29 cells, HT-29 cells (5×10^5 cells in 2 ml serum-free medium) were transiently transfected with 2 μg MAT2A promoter firefly luciferase gene construct or promoterless pGL3-enhancer vector (as negative control) using the Superfect Transfection Reagent (Qiagen, Valencia, Calif.) (34). To control for transfection efficiency, cells were co-transfected with the Renilla phRL-TK vector (Promega, Madison, Wis.). […] The luciferase activity driven by the MAT2A promoter construct was normalized to Renilla luciferase activity. Each experiment was done with triplicate samples.

[3] = system: human GSS promoter; test: Human GSS promoter activity in HT-29 cells; assay type: cell-based; details: SAMe or MTA treatment as for MAT2A promoter
From the text: as §2, with “activity. Specificity of SAMe and MTA on promoter activity was examined by transfecting HT-29 cells with the GSS promoter construct and treating cells with SAMe or MTA as above.” for “activity.”

[4] = system: HT-29 cells; test: Cell growth by MTT assay in HT-29 cells; assay type: cell-based, human; details: SAMe 0.5 to 5 mM, MTA 0.5 to 1 mM, 16 hrs
Protocol: Cell growth was measured by the cell growth determination kit MTT from Sigma (St. Louis, Mo.). The MTT assay measures the cell proliferation rate and reduction in cell viability. HT-29 or RKO cells (1×10^4/well) were plated in 96-well plates and treated with growth factors (all 100 ng/ml), SAMe (0.5 to 5 mM), MTA (0.5 to 1 mM), alone or in combination for 16 hrs in serum-free medium. To determine the effect of MAT2A RNAi on mitogen-induced changes in MTT, cells were first treated with RNAi for 48 hrs followed by mitogen treatment for another 24 hrs.

[5] = system: RKO cells; test: Apoptosis in RKO cells (HOECHST staining, Annexin V); assay type: cell-based, human; details: by 24 hrs
Protocol: Apoptosis was assessed by HOECHST staining (34). Briefly, RKO cells were grown on coverslips and treated with RNAi#1 for 24 hrs and cells were fixed with paraformaldehyde and stained with 8 μg/ml HOECHST 33258 dye for 30 min. Cells with bright, fragmented, condensed nuclei were identified as apoptotic cells using the Nikon Eclipse TE300 fluorescent microscope. At least 5 random fields (at ×300) were counted.
In these experiments the total treatment duration was limited to 16 hrs to avoid the apoptotic effect. […] Apoptosis was measured by Hoechst staining or Annexin V and propidium iodide staining on flow cytometry.

[6] = system: HT-29 cells; test: Polyamine levels in HT-29 cells; assay type: cell-based, human; details: MTA treated group, 6 hrs
Protocol: as §1
Cellular SAMe and MTA levels were measured (51) and polyamine levels were determined (52).

[7] = system: c-FLIP; test: c-FLIP expression and caspase 8 activation in RKO cells; assay type: cell-based, human; details: 6 hrs, with concomitant caspase 8 activation
Protocol: FIG. 27. […] RKO cells were treated with SAMe (0.25-5 mM) or MTA (0.25-2 mM) for 6 hrs and c-FLIP isoform mRNA levels were measured using real-time PCR (A) and protein levels of c-FLIP and caspase 8 by Western blots (B).

[8] = system: HT-29 cells; test: TNFα-induced apoptosis in HT-29 cells (DNA fragmentation); assay type: cell-based, human; details: MTA 1 mM, TNF-α 14 ng/ml, 24 hours
[9] = system: RKO cells; test: TRAIL-induced apoptosis in RKO cells (Annexin V with FACS); assay type: cell-based, human; details: 24 hours
Protocol: FIG. 28. MTA sensitizes RKO cells to TRAIL-induced apoptosis. RKO cells were treated with 1 mM MTA, […] 5-FU, or 10 ng/ml TRAIL alone or in combination for 24 hours. Apoptosis was determined by Annexin V with FACS.

[10] = system: HT-29 cells; test: Cytochrome c release in HT-29 cells (Western blot of cytosol); assay type: cell-based, human; details: MTA 1 mM, 24 hours
[11] = system: cFLIPL; test: Colonic cFLIPL mRNA in mice fed SAMe or MTA; assay type: in vivo; details: oral, 6 days
Protocol: FIG. 30. Effects of oral SAMe and MTA on colonic mRNA levels of MAT2A, MAT2 β, and […]. Mice were fed SAMe (150 to 450 mg/kg/d) or MTA (75 or 150 mg/kg/d) in drinking water for 6 days. Colonic mucosa was scrapped off and gene expression measured by real-time PCR.

[12] = system: aberrant crypt foci (ACF); test: Aberrant crypt foci (ACF) formation in AOM treated Min mice; assay type: in vivo; details: MTA 75 mg/kg/d in drinking water, AOM 5 mg/kg s.c., 6 weeks, p=0.1, preliminary

SMILES | lowering of MAT2A expression ([1]; after 1 hr of treatment) | lowering of MAT2A expression ([1]; after 3 hrs of treatment) | basal MAT2A expression ([1]; MTA 1 mM, HT-29 cells) | IGF-1-mediated induction of MAT2A on co-treatment ([1]; co-treatment 3 hrs) | leptin- or EGF-induced MAT2A expression on co-treatment ([1]; co-treatment with leptin (6 hrs) or EGF (3 hrs)) | human MAT2A promoter activity [2] | human GSS promoter activity [3] | growth, agent alone [4] | mitogenic action of leptin, EGF and IGF-1 ([4]; with growth factors) | apoptosis [5] | putrescine levels [6] | spermidine levels [6] | spermine levels [6] | c-FLIP expression [7] | TNFα-induced apoptosis [8] | TRAIL-induced apoptosis [9] | cytochrome c release [10] | cFLIPL expression [11] | number of ACFs [12]
C[S+](CC[C@H](N)C(=O)O)C[C@H]1O[C@@H](n2cnc3c(N)ncnc32)[C@H](O)[C@@H]1O (stereo partly drawn) [SAMe, S-adenosylmethionine] | 10-20% | 60-65% |  |  |  |  |  |  |  |  |  |  |  |  |  |  |  |  | 
CSC[C@H]1O[C@@H](n2cnc3c(N)ncnc32)[C@H](O)[C@@H]1O [MTA, methylthioadenosine] | 10-20% | 60-65% | lowers basal MAT2A expression to comparable levels even at a lower dose | blunted the IGF-1-mediated induction of MAT2A | prevented the ability of these growth factors to induce MAT2A | lower the promoter activity | no influence on the human GSS promoter activity | no effect on growth | blocked the mitogenic action | induced apoptosis in a dose-dependent manner | lower putrescine levels | lower spermidine and spermine levels | lower spermidine and spermine levels | lowered c-FLIP expression | potentiated TNFα-induced apoptosis | sensitized RKO cells to TRAIL-induced apoptosis | induces cytochrome c release | inhibited cFLIPL expression | tended to prevent the increase; also recorded: reduction in the development of lesions

— patent publication US20100166727A1, “S-Adenosylmethionine And Methylthioadensosine In Chemoprevention And Treatment Of Colon Polyps And Cancer” (UNIVERSITY OF SOUTHERN CALIFORNIA, priority 2007, published 2010)
